# Paper doi:10.1101/2025.05.13.653842
# Results are given in words; binding and its absence hold for the method and conditions named.
# B1: Escherichia coli SMC-like RecN protein, P05824 1-553 (protein)
# chain: MLAQLTISNFAIVRELEIDFHSGMTVITGETGAGKSIAIDALGLCLGGRAEADMVRTGAARADLCARFSLKDTPAALRWLEENQLEDGHECLLRRVISSDGRSRGFINGTAVPLSQLRELGQLLIQIHGQHAHQLLTKPEHQKFLLDGYANETSLLQEMTARYQLWHQSCRDLAHHQQLSQERAARAELLQYQLKELNEFNPQPGEFEQIDEEYKRLANSGQLLTTSQNALALMADGEDANLQSQLYTAKQLVSELIGMDSKLSGVLDMLEEATIQIAEASDELRHYCDRLDLDPNRLFELEQRISKQISLARKHHVSPEALPQYYQSLLEEQQQLDDQADSQETLALAVTKHHQQALEIARALHQQRQQYAEELAQLITDSMHALSMPHGQFTIDVKFDEHHLGADGADRIEFRVTTNPGQPMQPIAKVASGGELSRIALAIQVITARKMETPALIFDEVDVGISGPTAAVVGKLLRQLGESTQVMCVTHLPQVAGCGHQHYFVSKETDGAMTETHMQSLNKKARLQELARLLGGSEVTRNTLANAKELLAA
# How the values were obtained:
# [1] = molecular target: T1, Escherichia coli RecA recombinase, as RecA-ssDNA filament (E. coli), P0A7G6; experiment: optical tweezers; settings: remark: other sources report otherwise
# T1 chain: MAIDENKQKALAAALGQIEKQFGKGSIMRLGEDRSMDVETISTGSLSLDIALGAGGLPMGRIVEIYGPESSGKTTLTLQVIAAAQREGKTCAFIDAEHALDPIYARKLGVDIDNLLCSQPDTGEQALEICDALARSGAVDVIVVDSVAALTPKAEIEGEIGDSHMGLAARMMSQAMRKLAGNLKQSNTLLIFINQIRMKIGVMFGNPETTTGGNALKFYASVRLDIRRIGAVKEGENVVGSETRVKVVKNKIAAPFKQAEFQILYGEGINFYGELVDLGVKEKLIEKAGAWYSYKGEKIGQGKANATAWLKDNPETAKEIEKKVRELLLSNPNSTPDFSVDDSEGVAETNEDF
# [2] = molecular target: T1, Escherichia coli RecA recombinase, as …; experiment: optical tweezers; settings: remark: other sources report otherwise
binder,measurement,setting,value
B1,binding,[1],no binding (tested: 500 nM)
same,binding,[2],no binding (tested: 500 nM)
